Measurements: PMC7031342
These are yes or no findings as the source states them, for the method shown. For some assays here: Binding seen in cells or lysates may run through a third protein. Some results given as binding are weak or reduced against the parent protein; the word gives no strength. Each block holds one binder with its values, some of them ahead of it.

Amino acid sequences for entries named in this document (tags omitted).
UniProt Q60870: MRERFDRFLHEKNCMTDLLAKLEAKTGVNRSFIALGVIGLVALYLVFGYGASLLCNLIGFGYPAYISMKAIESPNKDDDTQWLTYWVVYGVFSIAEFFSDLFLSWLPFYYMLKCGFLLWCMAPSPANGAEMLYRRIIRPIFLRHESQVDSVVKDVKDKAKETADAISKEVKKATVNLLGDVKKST
UniProt Q00765: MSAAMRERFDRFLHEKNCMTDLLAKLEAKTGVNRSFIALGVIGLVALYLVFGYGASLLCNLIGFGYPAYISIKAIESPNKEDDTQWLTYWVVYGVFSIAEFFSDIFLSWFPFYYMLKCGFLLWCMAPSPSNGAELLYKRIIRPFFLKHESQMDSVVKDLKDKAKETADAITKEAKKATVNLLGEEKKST

What was measured:
[1] = molecular target: endogenous mouse REEP5 (mouse (endogenous in mouse tissues)) (UniProt Q60870); assay: co-IP; adult mouse cardiac (ventricular) microsomes; immunoprecipitation with anti-REEP5, anti-RTN4/Nogo-A/B, anti-ATL3 or anti-CKAP4 antibody, immunoblot
[2] = molecular target: endogenous mouse REEP5 (mouse (endogenous in mouse tissues)) (UniProt Q60870); assay: co-IP; total neonatal mouse ventricular cardiac lysate
[3] = molecular target: CnVA-tagged (StrepII-6xHis, 3xFlag) REEP5 (human) (UniProt Q00765); assay: pull-down; nickel-His purification of CnVA-REEP5 from transfected HEK293 cells; immunoblots of the eluate
TF-Cub-REEP5 (human) = TF-Cub-REEP5 (human) (UniProt Q00765); assay: two-hybrid; membrane yeast two-hybrid (MYTH, split ubiquitin); bait TF-Cub-REEP5, prey Ost1p fused at its C-terminus with NubG; growth on SD-WLAH + 10 nM 3-AT

binding [1]: binds
binding [2]: binds
B1: ATL3 (mouse heart) (protein, UniProt Q91YH5 1-541)
chain: MLSPQRTAAVASRGAGDAMENGKPGPVQVVLVHKEQHSFELEERALASVLLQDHIRDLDVVVVSVAGAFRKGKSFILDFMLRYLYSQKEGGHSDWLGDPEEPLTGFSWRGGSDPETTGIQIWSEVFTVKKPCGKKVAVVLMDTQGAFDSQSTVKDCATIFALSTMTSSVQIYNLSQNIQEDDLQQLQLFTEYGRLAMDEIFQKPFQTLMFLIRDWSFPYEYNYGLQGGMAFLDKRLHVKEHQHEEIQNVRNHIHSCFSDVTCFLLPHPGLQVATSPNFDGKLKDIASEFKEQLQALIPYVLNPSKLMEKEINGSKVTCRGLLEYFKAYIKIYQGEDLPHPKSMLQATAEANNLAAAASAKDIYYNNMEEICGGEKPYLSPDILEEKHLEFKQLALDHFKKIKKMGGKDFSFRYQQELEEEIKELYENFCKHNGSKNVFSTFRTPAVLFTGIAALYIASGFTGFIGLEVVAQLFNCMVGLLLIALLTWGYIRYSGQYRELGGAIDSGAAYVLEQASSHIGNSTQAAVRDAVVGRPPADKKSQ

binding [3]: binds
B2: ATL3 (HEK293) (protein, UniProt Q6DD88 1-541)
chain: MLSPQRVAAAASRGADDAMESSKPGPVQVVLVQKDQHSFELDEKALASILLQDHIRDLDVVVVSVAGAFRKGKSFILDFMLRYLYSQKESGHSNWLGDPEEPLTGFSWRGGSDPETTGIQIWSEVFTVEKPGGKKVAVVLMDTQGAFDSQSTVKDCATIFALSTMTSSVQIYNLSQNIQEDDLQQLQLFTEYGRLAMDEIFQKPFQTLMFLVRDWSFPYEYSYGLQGGMAFLDKRLQVKEHQHEEIQNVRNHIHSCFSDVTCFLLPHPGLQVATSPDFDGKLKDIAGEFKEQLQALIPYVLNPSKLMEKEINGSKVTCRGLLEYFKAYIKIYQGEDLPHPKSMLQATAEANNLAAAASAKDIYYNNMEEVCGGEKPYLSPDILEEKHCEFKQLALDHFKKTKKMGGKDFSFRYQQELEEEIKELYENFCKHNGSKNVFSTFRTPAVLFTGIVALYIASGLTGFIGLEVVAQLFNCMVGLLLIALLTWGYIRYSGQYRELGGAIDFGAAYVLEQASSHIGNSTQATVRDAVVGRPSMDKKAQ

binding (TF-Cub-REEP5 (human)): no binding
B3: Ost1p-NubG (protein, UniProt P41543 23-476)
chain: AQYEPPATWENVDYKRTIDVSNAYISETIEITIKNIASEPATEYFTAFESGIFSKVSFFSAYFTNEATFLNSQLLANSTTAPGDDGESEIRYGIIQFPNAISPQEEVSLVIKSFYNTVGIPYPEHVGMSEEQHLLWETNRLPLSAYDTKKASFTLIGSSSFEEYHPPNDESLLGKANGNSFEFGPWEDIPRFSSNETLAIVYSHNAPLNQVVNLRRDIWLSHWASTIQFEEYYELTNKAAKLSKGFSRLELMKQIQTQNMRQTHFVTVLDMLLPEGATDHYFTDLVGLVSTSHAERDHFFIRPRFPIFGGWNYNFTVGWTNKLSDFLHVSSGSDEKFVASIPILNGPPDTVYDNVELSVFLPEGAEIFDIDSPVPFTNVSIETQKSYFDLNKGHVKLTFSYRNLISQVANGQVLIKYDYPKSSFFKKPLSIACYIFTALMGVFVLKTLNMNVTN

binding [1]: binds
binding [2]: binds
B4: Nogo-B (mouse heart) (protein, UniProt Q99P72-5 1-356)
chain: MEDIDQSSLVSSSADSPPRPPPAFKYQFVTEPEDEEDEEDEEEEEDDEDLEELEVLERKPAAGLSAAPVPPAAAPLLDFSSDSVPPAPRGPLPAAPPTAPERQPSWERSPAASAPSLPPAAAVLPSKLPEDDEPPARPPAPAGASPLAEPAAPPSTPAAPKRRGSGSVVVDLLYWRDIKKTGVVFGASLFLLLSLTVFSIVSVTAYIALALLSVTISFRIYKGVIQAIQKSDEGHPFRAYLESEVAISEELVQKYSNSALGHVNSTIKELRRLFLVDDLVDSLKFAVLMWVFTYVGALFNGLTLLILALISLFSIPVIYERHQAQIDHYLGLANKSVKDAMAKIQAKIPGLKRKAE

binding [1]: binds
binding [2]: binds
B5: Nogo-A (mouse heart) (protein, UniProt Q99P72-2 1-1162)
chain: MEDIDQSSLVSSSADSPPRPPPAFKYQFVTEPEDEEDEEDEEEEEDDEDLEELEVLERKPAAGLSAAPVPPAAAPLLDFSSDSVPPAPRGPLPAAPPTAPERQPSWERSPAASAPSLPPAAAVLPSKLPEDDEPPARPPAPAGASPLAEPAAPPSTPAAPKRRGSGSVDETLFALPAASEPVIPSSAEKIMDLKEQPGNTVSSGQEDFPSVLFETAASLPSLSPLSTVSFKEHGYLGNLSAVASTEGTIEETLNEASRELPERATNPFVNRESAEFSVLEYSEMGSSFNGSPKGESAMLVENTKEEVIVRSKDKEDLVCSAALHNPQESPATLTKVVKEDGVMSPEKTMDIFNEMKMSVVAPVREEYADFKPFEQAWEVKDTYEGSRDVLAARANMESKVDKKCFEDSLEQKGHGKDSESRNENASFPRTPELVKDGSRAYITCDSFSSATESTAANIFPVLEDHTSENKTDEKKIEERKAQIITEKTSPKTSNPFLVAIHDSEADYVTTDNLSKVTEAVVATMPEGLTPDLVQEACESELNEATGTKIAYETKVDLVQTSEAIQESIYPTAQLCPSFEEAEATPSPVLPDIVMEAPLNSLLPSTGASVAQPSASPLEVPSPVSYDGIKLEPENPPPYEEAMSVALKTSDSKEEIKEPESFNAAAQEAEAPYISIACDLIKETKLSTEPSPEFSNYSEIAKFEKSVPDHCELVDDSSPESEPVDLFSDDSIPEVPQTQEEAVMLMKESLTEVSETVTQHKHKERLSASPQEVGKPYLESFQPNLHITKDAASNEIPTLTKKETISLQMEEFNTAIYSNDDLLSSKEDKMKESETFSDSSPIEIIDEFPTFVSAKDDSPKEYTDLEVSNKSEIANVQSGANSLPCSELPCDLSFKNTYPKDEAHVSDEFSKSRSSVSKVPLLLPNVSALESQIEMGNIVKPKVLTKEAEEKLPSDTEKEDRSLTAVLSAELNKTSVVDLLYWRDIKKTGVVFGASLFLLLSLTVFSIVSVTAYIALALLSVTISFRIYKGVIQAIQKSDEGHPFRAYLESEVAISEELVQKYSNSALGHVNSTIKELRRLFLVDDLVDSLKFAVLMWVFTYVGALFNGLTLLILALISLFSIPVIYERHQAQIDHYLGLANKSVKDAMAKIQAKIPGLKRKAE
